Results as given in patent publication US20250283871A1, “COMPOSITIONS AND METHODS FOR MODULATING THE INTERACTION BETWEEN SS18-SSX FUSION ONCOPROTEIN AND NUCLEOSOMES” (Dana-Farber Cancer Institute, Inc., priority 2020, published 2025).

B1: PDS5B (protein, UniProt Q9NTI5 1-1447, looked up)
Sister chromatid cohesion …: MAHSKTRTNDGKITYPPGVKEISDKISKEEMVRRLKMVVKTFMDMDQDSEEEKELYLNLALHLASDFFLKHPDKDVRLLVACCLADIFRIYAPEAPYTSPDKLKDIFMFITRQLKGLEDTKSPQFNRYFYLLENIAWVKSYNICFELEDSNEIFTQLYRTLFSVINNGHNQKVHMHMVDLMSSIICEGDTVSQELLDTVLVNLVPAHKNLNKQAYDLAKALLKRTAQAIEPYITNFFNQVLMLGKTSISDLSEHVFDLILELYNIDSHLLLSVLPQLEFKLKSNDNEERLQVVKLLAKMFGAKDSELASQNKPLWQCYLGRFNDIHVPIRLECVKFASHCLMNHPDLAKDLTEYLKVRSHDPEEAIRHDVIVSIVTAAKKDILLVNDHLLNFVRERTLDKRWRVRKEAMMGLAQIYKKYALQSAAGKDAAKQIAWIKDKLLHIYYQNSIDDRLLVERIFAQYMVPHNLETTERMKCLYYLYATLDLNAVKALNEMWKCQNLLRHQVKDLLDLIKQPKTDASVKAIFSKVMVITRNLPDPGKAQDFMKKFTQVLEDDEKIRKQLEVLVSPTCSCKQAEGCVREITKKLGNPKQPTNPFLEMIKFLLERIAPVHIDTESISALIKQVNKSIDGTADDEDEGVPTDQAIRAGLELLKVLSFTHPISFHSAETFESLLACLKMDDEKVAEAALQIFKNTGSKIEEDFPHIRSALLPVLHHKSKKGPPRQAKYAIHCIHAIFSSKETQFAQIFEPLHKSLDPSNLEHLITPLVTIGHIALLAPDQFAAPLKSLVATFIVKDLLMNDRLPGKKTTKLWVPDEEVSPETMVKIQAIKMMVRWLLGMKNNHSKSGTSTLRLLTTILHSDGDLTEQGKISKPDMSRLRLAAGSAIVKLAQEPCYHEIITLEQYQLCALAINDECYQVRQVFAQKLHKGLSRLRLPLEYMAICALCAKDPVKERRAHARQCLVKNINVRREYLKQHAAVSEKLLSLLPEYVVPYTIHLLAHDPDYVKVQDIEQLKDVKECLWFVLEILMAKNENNSHAFIRKMVENIKQTKDAQGPDDAKMNEKLYTVCDVAMNIIMSKSTTYSLESPKDPVLPARFFTQPDKNFSNTKNYLPPEMKSFFTPGKPKTTNVLGAVNKPLSSAGKQSQTKSSRMETVSNASSSSNPSSPGRIKGRLDSSEMDHSENEDYTMSSPLPGKKSDKRDDSDLVRSELEKPRGRKKTPVTEQEEKLGMDDLTKLVQEQKPKGSQRSRKRGHTASESDEQQWPEEKRLKEDILENEDEQNSPPKKGKRGRPPKPLGGGTPKEEPTMKTSKKGSKKKSGPPAPEEEEEEERQSGNTEQKSKSKQHRVSRRAQQRAESPESSAIESTQSTPQKGRGRPSKTPSPSQPKKNVRVGRSKQAATKENDSSEEVDVFQGSSPVDDIPQEETEEEEVSTVNVRRRSAKRERR
B2: AATF (protein, UniProt Q9NY61 2-560, looked up)
Protein AATF: AGPQPLALQLEQLLNPRPSEADPEADPEEATAARVIDRFDEGEDGEGDFLVVGSIRKLASASLLDTDKRYCGKTTSRKAWNEDHWEQTLPGSSDEEISDEEGSGDEDSEGLGLEEYDEDDLGAAEEQECGDHRESKKSRSHSAKTPGFSVQSISDFEKFTKGMDDLGSSEEEEDEESGMEEGDDAEDSQGESEEDRAGDRNSEDDGVVMTFSSVKVSEEVEKGRAVKNQIALWDQLLEGRIKLQKALLTTNQLPQPDVFPLFKDKGGPEFSSALKNSHKALKALLRSLVGLQEELLFQYPDTRYLVDGTKPNAGSEEISSEDDELVEEKKQQRRRVPAKRKLEMEDYPSFMAKRFADFTVYRNRTLQKWHDKTKLASGKLGKGFGAFERSILTQIDHILMDKERLLRRTQTKRSVYRVLGKPEPAAQPVPESLPGEPEILPQAPANAHLKDLDEEIFDDDDFYHQLLRELIERKTSSLDPNDQVAMGRQWLAIQKLRSKIHKKVDRKASKGRKLRFHVLSKLLSFMAPIDHTTMNDDARTELYRSLFGQLHPPDEGHGD
B3: GLYR1 (protein, UniProt Q49A26 1-553, looked up)
Cytokine-like nuclear factor …: MAAVSLRLGDLVWGKLGRYPPWPGKIVNPPKDLKKPRGKKCFFVKFFGTEDHAWIKVEQLKPYHAHKEEMIKINKGKRFQQAVDAVEEFLRRAKGKDQTSSHNSSDDKNRRNSSEERSRPNSGDEKRKLSLSEGKVKKNMGEGKKRVSSGSSERGSKSPLKRAQEQSPRKRGRPPKDEKDLTIPESSTVKGMMAGPMAAFKWQPTASEPVKDADPHFHHFLLSQTEKPAVCYQAITKKLKICEEETGSTSIQAADSTAVNGSITPTDKKIGFLGLGLMGSGIVSNLLKMGHTVTVWNRTAEKCDLFIQEGARLGRTPAEVVSTCDITFACVSDPKAAKDLVLGPSGVLQGIRPGKCYVDMSTVDADTVTELAQVIVSRGGRFLEAPVSGNQQLSNDGMLVILAAGDRGLYEDCSSCFQAMGKTSFFLGEVGNAAKMMLIVNMVQGSFMATIAEGLTLAQVTGQSQQTLLDILNQGQLASIFLDQKCQNILQGNFKPDFYLKYIQKDLRLAIALGDAVNHPTPMAAAANEVYKRAKALDQSDNDMSAVYRAYIH

Test system: BAF complex subunits and histone proteins
Assay: Mass spectrometry proteomics of purified HA-SS18 WT and HA-SS18-SSX1 complexes (Tables 5A-5E)
Parameters: species or system human
Settings: HEK-293T
[1] = HA-SS18SSX1_CHR_peptides: protein identified in the HA-SS18-SSX1 purification from solubilized chromatin (CHR)
[2] = HA-SS18SSX1 purification, NE (soluble nuclear extract) fraction, peptides per identified protein
[3] = HA-SS18WT_CHR_peptides: HA-SS18 WT purification from nuclease-treated solubilized chromatin (CHR), label = protein identified
[4] = HA-SS18WT_NE_peptides: HA-SS18 WT complexes purified from nuclear extract (NE), label = protein identified (Gene Symbol)

| Molecule | Total (total peptides) [1] | Unique (unique peptides) [1] | Total (total peptides) [2] | Unique (unique peptides) [2] | Total (peptides) [3] | Unique (peptides) [3] | Total (peptides) [4] | Unique (peptides) [4] |
| --- | --- | --- | --- | --- | --- | --- | --- | --- |
| B1 | 13 | 13 | 9 | 9 | 18 | 18 | 5 | 5 |
| B2 | 14 | 10 | – | – | 8 | 7 | – | – |
| B3 | 13 | 11 | 4 | 4 | 8 | 6 | 3 | 3 |
